# Percent effect of library compounds

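Growth of Mycobacterium tuberculosis over 3 days (7H9 medium with glucose and tyloxapol); the read-out is not stated. Concentration: 50 µM. Higher reads as more growth inhibition (inferred: compounds with an IC50 in retests scored well above the rest). Of about 69,000 compounds tested this way, about 760 (1.1%) reached 50% or more in at least one test.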

Values are the deposited “Percent Effect”, in %. The controls that fix the scale are not given in the record; negative values are as filed. This is an unselected part of the compounds tested. Two or more numbers in one place are separate tests of the same structure; such repeats can differ widely.

O=C(O)C(F)(F)F.O=S(=O)(C1CC1)N1CCC2(CC1)CC(Oc1cccnc1)CO2 (configuration not stated) read -14.02%. Cc1c(C(=O)N2CCC(C(O)c3ccc(Cl)cc3)CC2)cnn1C (configuration not stated) gave -2.741%. With Cc1cccc(OC2CCN(C(=O)NCCn3ccnc3)CC2)c1C the screen gave -11.32%. Cn1cc(NC(=O)CNC(=O)N2CCN(c3cccc(Cl)c3)CC2)cn1 read 4.819% & 5.952%. Result for Cn1nc(Cn2ccnc2)c2c1CN(c1nccs1)C2.O=C(O)C(F)(F)F.O=C(O)C(F)(F)F was -1.575% & -25.59%. Cc1ncc(CN(C)C(=O)Nc2cccc(N3CCNC3=O)c2)s1 gave -18.2%. CCCc1noc(C(C)N(CC)Cc2ccco2)n1 (configuration not stated) read 10.25%.

For CN(C)CCN(C)C1CCN(C(C(=O)O)c2ccc(F)c(Cl)c2)CC1 (configuration not stated) the result was 14.18% & -2.536%. With c1nc2n(c1CN1CCCC1)CCN(C1CCOCC1)CC2 the screen gave 28.17%. Result for NC(=O)CC1CCCN(C(=O)NCC2(c3cccs3)CCCC2)C1 (configuration not stated) was 7.153%. With CN(C)CCNC(=O)c1cc2n(n1)CCN(C(=O)c1ccco1)C2 the screen gave 12.76%. [H][C@@]12CN(c3ccc(C)nn3)C[C@@H](C(=O)NC3CCCC3)[C@]1([H])CCO2 gave -11.95%. For CCCc1cc(NC2CCc3nc(C(C)C)nn3C2)n2ncnc2n1 (configuration not stated) the result was -20.71%. Cc1cc(C)n(Cc2ccc(C(=O)N3CCOCC3(C)C)cc2)n1 gave -51.76%.

O=C(O)C(F)(F)F.O=C(O)C(F)(F)F.[H][C@@]12CC(COCc3cccnc3)C[C@@]1([H])N(c1ncc(C)cn1)CCO2 (some centres not stated) read -15.88%. With OCCCN(CCc1cccc(F)c1)C1CC1 the screen gave 4.967%. CCCn1cc(CN2CCCC2c2nccc(CN(C)C)n2)cn1 (configuration not stated) read 18.9%. For Cc1oc(-c2nc(C#N)c(N(C)C)o2)cc1S(=O)(=O)N1CCCC1 the result was 15.69%. CCN(CC1CN(Cc2c(C)noc2C)CCO1)c1cccnn1 (configuration not stated) read -7.888%. Cc1nc(C)c(C(=O)Nc2ccc(-c3nnc(N(C)C)o3)cc2)o1 read -4.572%. Result for [H][C@@]12COC[C@@H](Cc3nc(C)no3)[C@]1([H])CN(S(=O)(=O)CC)C2 was 1.163% & -6.242%.

Cc1c(C(=O)N2CCCC(C(=O)c3nccn3C)C2)c[nH]c(=O)c1C#N (configuration not stated) read -23.75%. For CCCc1nc(N2CCCC(CCOC)C2)c2cnn(C)c2n1 (configuration not stated) the result was -31.68%. For CC(=O)N(C)C1CCN(C(=O)c2cccc3c2ccn3C)CC1 the result was 11.29%. Result for Cc1cc(NC(=O)CN2CCC(N3CCNC3=O)CC2)on1 was -28.33%. CC(=O)N1CCC2(CCCN(S(=O)(=O)c3ccc(F)cc3)C2)C1 (configuration not stated) read 16.96%. With Cc1cc(S(=O)(=O)Nc2onc(C)c2C)sc1C the screen gave -4.574%. O=C(O)[C@H]1C[C@H](C(=O)NC2CC2)CN(Cc2ccc(-c3cc[nH]n3)s2)C1 gave -8.396% & 5.044%.

Cc1ccc(C2CSCCN2C(=O)c2ccncc2)cc1 (configuration not stated) gave -6.523% & -1.09%. For Cc1nc(C)c(S(=O)(=O)NC(=O)c2cccs2)s1 the result was -13.35%. With CNC(=O)c1cn(C(C)(C)C)c2ncccc12 the screen gave -8.914%. Result for O=C(O)C(F)(F)F.O=C(O)C(F)(F)F.[H][C@]12CCN(C(=O)CCC)CC[C@@]1([H])S(=O)(=O)CCN2Cc1cccnc1 was -13.52%. Cn1nc(Br)c2c(NCCNc3ncccn3)ncnc21 read -4.511%. For COCCN1CCC(NCc2c(C)nn(C)c2N(C)C)CC1 the result was -14.63% & -12.75%. Result for O=C(c1cn(CC(=O)N2CCCC2)c2ccccc12)C1CC1 was -4.198%.

Cn1ncc2c1CN(Cc1ccccc1F)CC2COCC1CC1.O=C(O)C(F)(F)F.O=C(O)C(F)(F)F (configuration not stated) gave -32.91%. With O=C(N[C@@H]1CN(Cc2ccc(F)c(F)c2)C[C@H]1O)c1cscn1 the screen gave 22.66%. Result for CN(CC(C)(C)O)C1CCCN(Cc2noc(C3CC3)n2)C1 (configuration not stated) was -71.92%. With CCNC(=O)C1CCN(Cc2ccc(C(=O)Nc3cnns3)cc2)C1 (configuration not stated) the screen gave 29.66%. For CN(C)C(=O)CNC(=O)c1ccc2ccc(N(C)CC3CC3)n2c1 the result was -16.43%. Cc1cnn(CC2CCCN2Cc2ncc(-c3ccc(F)cc3)o2)c1 (configuration not stated) gave 96.79%. For CN(C)c1nc2c(c(N3CCC(O)CC3)n1)CN(CC1CCNC1)CC2 (configuration not stated) the result was -11.02%.

O=C(CCc1ccco1)N1CCCC(n2cccn2)C1 (configuration not stated) gave 9.131%. For O=C(c1cc(F)ccc1O)N1CCN(C(=O)C2CCC2)CC1 the result was -15.47%. Cc1cc(O)cc(=O)n1CCCC(=O)Nc1n[nH]c2ccccc12 gave 0.4986%. With O=C(CCNC(=O)c1ccccc1)Nc1ccncc1 the screen gave -6.04% & -4.912%. With Cc1ccc(NC(=O)NCC2(N3CCOCC3)CCSC2)c(C)c1 (configuration not stated) the screen gave -7.728% & -10.93%. NC(=O)c1cnc2n1CCN(C(=O)c1ccc(Cn3cccc3)cc1)C2 gave -4.327% & -24.38%. Result for NC(=O)N1Cc2nccn2CC(Cn2ncccc2=O)C1 (configuration not stated) was 18.32%.

COc1ccc(NC(=O)N(C)Cc2ccsc2)cn1 read -32.48%. For CCCc1cc(NCCC2CCCOC2)n2nccc2n1 (configuration not stated) the result was -45.12%. N#Cc1cccc(N2CCC3(CCC(=O)N(CC(N)=O)C3)CC2)n1 read 25.74%. For CNc1nc2c(c(C(=O)N3CCCC3)n1)CN(Cc1ccco1)CC2 the result was 16.06%. [H][C@@]12C[C@@H](c3noc(C)n3)O[C@]1([H])CN(Cc1scnc1C)C2 gave -33.19% & -5.573%.

Measurements from “University of Dundee, Small-Polar-MMV Screening Library” (2021), ChEMBL document CHEMBL3988442.